Experimental data: PubChem BioAssay AID504444 (National Center for Advancing Translational Sciences (NCATS), 2011)
Screen size: about 360,000 compounds; about 7,500 (2.1%) were called active. This list was built around the results that the source calls inconclusive (neither active nor inactive); the mix of calls is not that of the screen. Calls follow the shape of the dose curve; as a rule, active = well fitted inhibition curve with a large enough effect; inconclusive = small, poorly fitted or top-dose-only effect, or effect the other way; inactive = flat fitted curve, though single readings scatter. Potencies beside an inconclusive call are fits to weak or partial responses and may not hold up.

Experiment: Nrf2 qHTS screen for inhibitors; also: nearly all actives have a fitted effect of over 60% in size
Details: A549 ARE-Fluc reporter, luciferase luminescence, 18-24 h; activity change, negative = inhibition: at 46 µM (top of the series)
Method in brief: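 Reporter: ARE-Fluc in A549. Exposure: 18-24 h, 37 °C, 5% CO2, 5% FBS OPTI-MEM. Readouts: fluorescent cytotoxicity (CellTiter-Fluor), then luminescent Nrf2 signal after BugLite.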
% is scaled to controls: 0 for no effect and ±100 for the full control effect; potency is read from the fitted curve at half-maximal effect.

Compound | Potency | activity change, negative = inhibition
O=C(CSc1nc2ccncc2[nH]1)Nc1ccccc1C(F)(F)F | inconclusive: 2.06 µM [falling, partial curve] | 
CC(CCc1ccccc1)NC(=O)c1cc2sccc2n1C (stereo not given) | inconclusive: 18.4 µM [falling, partial curve] | 
Cc1ccc(C(=O)n2cnnc2N)cc1C | inconclusive: 8.2 µM [falling, partial curve, poor fit] | 
S=C(NCc1cccnc1)Nc1ccc(Cl)c(Cl)c1 | inconclusive: 29.1 µM [falling, single point] | 
CCC12CN3CC(CC)(CN(C1)C3c1cc(Br)ccc1OC)C2=O (stereo not given) |  | inactive: -9.08%
c1ccc(-c2nccc(-c3ccc4c(c3)OCO4)n2)cc1 | inconclusive: 9.2 µM [activator, partial curve] | 
COc1ccc(C(=O)/C=C/Nc2ccccn2)cc1 | inconclusive: 10.3 µM [falling, partial curve, poor fit] | 
CN(C)c1ccc(N=Nc2ccc(C(=O)O)cc2)cc1 | inconclusive: 2.91 µM [activator, partial curve] | 
Cn1c(=O)c2sccc2n(Cc2cccc(Br)c2)c1=O | active: 10.3 µM | 
CC(=O)N1CCCc2cc(S(=O)(=O)Nc3ccc(C)c(F)c3)ccc21 | inconclusive: 20.6 µM [falling, partial curve, poor fit] | 
N#Cc1ccc2ccn(CC(=O)NCc3ccccc3)c2c1 |  | inactive: -16.4%
O=C(/C=C/c1ccccc1[N+](=O)[O-])Nc1cccc(S(=O)(=O)NC2=NCCCCC2)c1 | inconclusive: 9.2 µM [falling, partial curve] | 
NC(=O)CC(NC(=O)c1ccccc1)c1ccc(NC2CCCCCCC2)c([N+](=O)[O-])c1 (stereo not given) | inconclusive: 18.4 µM [falling, single point] | 
Fc1ccc(F)c(C2=NNC(=Nc3ccccc3F)SC2)c1 |  | inactive: -14.4%
CCOc1ccc(NC(=O)CN2C(=O)C3(SCC(=O)N3c3ccc(F)cc3)c3ccccc32)cc1 (stereo not given) | inconclusive: 1.84 µM [activator, single point] | 
Cc1ccc(NC(=O)C[n+]2ccn(C3=C([O-])c4ccccc4C3=O)c2)cc1 |  | inactive: 13.3%
COc1ccc(CNc2oc(-c3ccc(COc4ccc(OC)cc4)o3)nc2C#N)cc1 | inconclusive: 32.6 µM [falling, single point] | 
Cc1ccc(CNS(=O)(=O)c2ccc3c(c2)NC(=O)CS3)cc1 |  | inactive: -11.7%
O=C(Cc1ccc([N+](=O)[O-])cc1)N/N=C/c1ccc([N+](=O)[O-])o1 | active: 20.6 µM | 
O=C(Nc1nc(-c2ccccn2)cs1)c1ccc(Cl)s1 | active: 2.59 µM | 
CCOC(=O)c1cnc(SCc2ccccc2)nc1N | inconclusive: 3.26 µM [activator, full curve] | 
CCCN1C(=O)C(NC(C)=O)c2ccccc21 (stereo not given) |  | inactive: 0.884%
COc1ccccc1NC(=O)COC(=O)C1CC(=O)N(c2ccc3c(c2)OCCO3)C1 (stereo not given) |  | inactive: 4.75%

Entries above containing a Cl atom, in the order listed:
Compound | Potency | activity change, negative = inhibition
S=C(NCc1cccnc1)Nc1ccc(Cl)c(Cl)c1 | inconclusive: 29.1 µM [falling, single point] | 
O=C(Nc1nc(-c2ccccn2)cs1)c1ccc(Cl)s1 | active: 2.59 µM | 

Later entries

Compound | Potency | activity change, negative = inhibition
Cc1cccc(CN2CCN(C(=O)CCc3nnc(C4CCCCC4)o3)CC2)c1 | inconclusive: 4.61 µM [activator, full curve] | 
CCN(CC)c1ccc(/C=N/NC(=O)c2ccc3nc[nH]c3c2)c(O)c1 |  | inactive: 2.34%
c1ccc(-c2ccc(-c3ccncn3)cc2)cc1 | inconclusive: 14.6 µM [activator, partial curve] | 
Cc1oc(-c2ccc(C(=O)Nc3ccccc3F)cc2)nc1COc1ccccc1 | inconclusive: 13 µM [falling, partial curve, poor fit] | 
CC(=O)NC(c1cccs1)c1cc(Cl)c2cccnc2c1O (stereo not given) | inconclusive: 23.1 µM [falling, partial curve, poor fit] | 
CCN1C(=O)C(Cc2nc3ccccc3c(=O)n2-c2ccccc2)c2cc(Br)ccc21 (stereo not given) | inconclusive: 20.6 µM [falling, single point] | 
COc1ccc(-c2noc(C3CCCN(C(=O)c4cccc(F)c4)C3)n2)cc1 (stereo not given) | inconclusive: 23.1 µM [falling, partial curve, poor fit] | 
O=C(Nc1nnc(C23CC4CC(CC(C4)C2)C3)s1)c1ccco1 | inconclusive: 5.17 µM [activator, partial curve] | 
CCCOc1ccc(OCCn2nc(C(=O)O)c3ccccc3c2=O)cc1 | inconclusive: 0.366 µM [falling, full curve, poor fit] | 
Cc1ccc(S(=O)(=O)N2CCN(CC(O)COc3ccccc3)CC2)cc1 (stereo not given) |  | inactive: -26.1%
O=C(NC1CCCC1)C1CCN(C(=O)c2ccc(-c3ccccc3)cc2)CC1 | inconclusive: 0.731 µM [falling, partial curve, poor fit] | 
O=C(CSc1nnc(-c2ccccc2F)n1C1CC1)Nc1cccnc1Cl | inconclusive: 11.6 µM [falling, partial curve, poor fit] | 
OCCNc1c2ccccc2nc2ccccc12 | inconclusive: 11.6 µM [falling, partial curve, poor fit] | 
COc1ccc(NC(=O)N2CCCCCC2)cc1 | inconclusive: 23.1 µM [activator, single point] | 
CN(C)c1ccc(C(=O)/C=C/c2ccco2)cc1 | inconclusive: 23.1 µM [activator, partial curve] | 
O=C(Nc1ccccc1)N1CCCN(c2nccc(C(F)(F)F)n2)CC1 |  | inactive: -8.22%
Cc1cc(C)c(OCC(=O)N(Cc2cccc(F)c2)Cc2ccco2)c(C)c1 | inconclusive: 18.4 µM [falling, single point] | 
Cc1ccc(N(C(=O)CCl)C(C(=O)NC2CCCCC2)c2cccnc2)cc1C (stereo not given) |  | inactive: -10.3%
O=C(NC1=NC2CCCCC2N1)c1ccccc1 (stereo not given) | inconclusive: 1.84 µM [activator, partial curve] | 
O=C(c1cc(-c2ccc(F)cc2)no1)N1CCN(Cc2ccc3c(c2)OCO3)CC1 | inconclusive: 29.1 µM [falling, single point] | 
CCc1nn(CC(=O)N2CCN(c3cccc(C(F)(F)F)c3)CC2)c(=O)c2cccn12 |  | inactive: 8.19%
Nc1nc(Nc2cccc(Cl)c2)n[nH]1 | inconclusive: 6.51 µM [falling, partial curve, poor fit] | 

Entries of single compounds as entered above.
O=C(NC1CCCC1)C1CCN(C(=O)c2ccc(-c3ccccc3)cc2)CC1 is listed with Potency: inconclusive: 0.731 µM [falling, partial curve, poor fit]
CCCN1C(=O)C(NC(C)=O)c2ccccc21 (stereo not given) is listed with activity change, negative = inhibition: inactive: 0.884%
